From patent US20180111972A1
Results are given in words; binding and its absence hold for the method and conditions named. Some entries that bind do so weakly or less than the wild type. For some assays here: Where a sequence is shown, tags or fusion partners need not be part of it.

What was measured:
[1] = molecular target: human VEGFR on human umbilical vein endothelial cells (HUVECs) (human) (UniProt P35968); test: flow cytometry titration of the soluble FLAG-tagged protein on HUVECs, anti-FLAG detection
[2] = molecular target: soluble PDGFRβ (Fc or His format not stated for the experiment) (human) (UniProt P09619); test: yeast surface display, flow cytometry with soluble receptor
[3] = molecular target: soluble PDGFRβ (Fc or His format not stated for the experiment) (human) (UniProt P09619); test: yeast surface display, flow cytometry dot plot: soluble receptor bound (FL1) against surface expression (FL2); receptor concentration not given

| binding [1] | binding [2] | binding [3] | Binder |
| --- | --- | --- | --- |
| binds | – | – | scVEGFwt, single-chain version of VEGF-A, soluble, FLAG and hexahistidine tags (ligand) DYKDDDDKEVVKFMDVYQRSYCHPIETLVDIFQEYPDEIEYIFKPSCVPLMRCGGCCNDEGLECVPTEESNITMQIMRIKPHQGQHIGEMSFLQHNKCECRPKKDGSTSGSGKSSEGKGEVVKFMDVYQRSYCHPIETLVDIFQEYPDEIEYIFKPSCVPLMRCGGCCNDEGLECVPTEESNITMQIMRIKPHQGQHIGEMSFLQHNKCECRPKKDHHHHHH |
| – | binds | binds | PV7 PDGF/VEGF hybrid construct, yeast-displayed (designed binder) IAEPAMIAECKTRETLVDIFQEYPDEIEYIFKPSCVPLMRCSGCCNNRNVQCRPTEESNITMQIMRIKPHQGQHIGEMSFLQHNKCKCETVAAGSTSGSGKSSEGKGEVVKFMDVYQRSYCHPITEVFEISRRLIDRTNANFLVWPPCVEVQRCGGCCNDEGLECVPTQVQLRPVQVRKIEIVRKKPIFKKATVTLEDHLACECRPKKD |
| – | binds | binds | PV8 PDGF/VEGF hybrid construct, yeast-displayed (designed binder) IAEPAMIAECKTIETLVDIFQEYPDEIEYIFKPSCVPLMRCSGCCNNRNVQCRPTEESNITMQIMRIKPHQGQHIGEMSFLQHLACKCETVAAGSTSGSGKSSEGKGEVVKFMDVYQRSYCHPRTEVFEISRRLIDRTNANFLVWPPCVEVQRCGGCCNDEGLECVPTQVQLRPVQVRKIEIVRKKPIFKKATVTLEDHNKCECRPKKD |
| binds | – | – | PVAM-S (PV R32A), soluble, FLAG and hexahistidine tags (designed binder) DYKDDDDKIAEPAMIAECHPIETLVDILQEYPDEIGYIFKPSCVPLMRCGGCCNNRNVQCRPTEESNITMQIMRIKPHRGQHIGEMSFLQHNKCRCETVAAGSTSGSGKSSEGKGEVVKFMDVYQRSYCKTRTEVFEISRRLIDATNANFLVWPPCVEVQRCSGCCNHEGLECVPTQVQLRPVQVRKIEFVRKKPIFKKATVTLEDHLACECRPKKDHHHHHH |

| Binder | binding [1] | binding [2] | binding [3] |
| --- | --- | --- | --- |
| PV1 PDGF/VEGF hybrid construct, yeast-displayed (designed binder) IAEPAMIAECKTRETLVDIFQEYPDEIEYIFKPSCVPLMRCSGCCNNRNVQCRPTEESNITMQIMRIKPHQGQHIGEMSFLQHLACKCETVAAGSTSGSGKSSEGKGEVVKFMDVYQRSYCHPITEVFEISRRLIDRTNANFLVWPPCVEVQRCGGCCNDEGLECVPTQVQLRPVQVRKIEIVRKKPIFKKATVTLEDHNKCECRPKKD | – | binds | binds |
